Article PMC6053202
Numbering of substitutions follows the chain as printed. Numbers in names are those of the source. No constants are given. Whether binding was seen depends on the method and setting. In cells and extracts the contact can be indirect. Some entries that bind do so weakly or less than the wild type. Sequences can lack the tags named with a protein.

The chains behind the UniProt entries cited, without tags or fusion partners. Residues count along the entry.
UniProt P14625, residues 22-803: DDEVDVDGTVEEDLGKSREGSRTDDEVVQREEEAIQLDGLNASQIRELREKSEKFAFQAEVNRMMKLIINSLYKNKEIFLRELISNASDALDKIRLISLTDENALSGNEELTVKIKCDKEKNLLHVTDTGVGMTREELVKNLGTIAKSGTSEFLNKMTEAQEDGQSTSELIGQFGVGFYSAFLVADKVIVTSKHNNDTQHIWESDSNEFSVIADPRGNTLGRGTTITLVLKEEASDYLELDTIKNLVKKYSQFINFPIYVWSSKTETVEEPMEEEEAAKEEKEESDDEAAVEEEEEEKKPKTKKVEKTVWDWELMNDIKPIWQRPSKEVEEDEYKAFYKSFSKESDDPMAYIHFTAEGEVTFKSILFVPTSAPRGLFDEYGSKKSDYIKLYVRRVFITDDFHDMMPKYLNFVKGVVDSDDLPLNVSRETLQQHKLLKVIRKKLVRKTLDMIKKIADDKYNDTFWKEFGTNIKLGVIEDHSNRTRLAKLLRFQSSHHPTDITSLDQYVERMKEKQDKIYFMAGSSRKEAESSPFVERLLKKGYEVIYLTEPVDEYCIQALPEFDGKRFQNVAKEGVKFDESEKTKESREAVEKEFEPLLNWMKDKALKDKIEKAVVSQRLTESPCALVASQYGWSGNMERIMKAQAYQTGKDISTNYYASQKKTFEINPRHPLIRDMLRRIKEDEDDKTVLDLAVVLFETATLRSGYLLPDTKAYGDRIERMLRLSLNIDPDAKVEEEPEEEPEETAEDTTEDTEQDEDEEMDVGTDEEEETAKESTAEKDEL

T1: GFP-tagged TLR9 Y870A (mouse) (UniProt Q9EQU3)
T1 sequence: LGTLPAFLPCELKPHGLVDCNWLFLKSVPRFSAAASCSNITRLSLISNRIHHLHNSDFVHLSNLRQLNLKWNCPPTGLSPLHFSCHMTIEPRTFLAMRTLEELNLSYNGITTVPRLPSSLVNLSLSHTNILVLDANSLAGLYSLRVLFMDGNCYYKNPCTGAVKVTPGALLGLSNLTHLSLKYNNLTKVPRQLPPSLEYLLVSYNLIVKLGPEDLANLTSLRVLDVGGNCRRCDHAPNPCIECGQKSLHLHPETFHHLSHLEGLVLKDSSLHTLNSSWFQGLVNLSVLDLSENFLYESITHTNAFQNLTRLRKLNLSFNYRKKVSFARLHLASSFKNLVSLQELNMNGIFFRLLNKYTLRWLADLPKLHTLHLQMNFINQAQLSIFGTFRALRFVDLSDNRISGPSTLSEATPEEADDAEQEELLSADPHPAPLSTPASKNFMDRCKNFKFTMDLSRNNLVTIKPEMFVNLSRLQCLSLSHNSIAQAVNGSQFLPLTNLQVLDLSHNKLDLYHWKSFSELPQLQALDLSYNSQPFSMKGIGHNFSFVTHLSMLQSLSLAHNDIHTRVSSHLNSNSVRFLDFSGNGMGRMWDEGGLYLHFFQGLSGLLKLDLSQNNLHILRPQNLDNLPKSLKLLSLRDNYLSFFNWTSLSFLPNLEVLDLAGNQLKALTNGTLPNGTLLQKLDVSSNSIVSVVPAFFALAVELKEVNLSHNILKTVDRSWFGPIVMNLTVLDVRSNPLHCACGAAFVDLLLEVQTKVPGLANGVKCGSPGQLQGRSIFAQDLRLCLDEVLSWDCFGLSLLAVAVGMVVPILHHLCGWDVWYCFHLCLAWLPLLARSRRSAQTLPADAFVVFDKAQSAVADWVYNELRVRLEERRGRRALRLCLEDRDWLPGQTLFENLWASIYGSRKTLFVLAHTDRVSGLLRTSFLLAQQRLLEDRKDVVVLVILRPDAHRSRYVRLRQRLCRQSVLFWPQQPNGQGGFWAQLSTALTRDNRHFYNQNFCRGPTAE

T2: GFP-tagged WT TLR9 (mouse) (UniProt Q9EQU3)
T2 sequence: T1 sequence with A845Y

T3: HA-tagged TLR9 Y870A (mouse) (UniProt Q9EQU3)
T3 sequence: T1 sequence

T4: HA-tagged WT TLR9 (mouse) (UniProt Q9EQU3)
T4 sequence: T1 sequence with A845Y

B1: GFP-tagged TLR9 Y870A (receptor, UniProt Q9EQU3 26-1032)
chain: T1 sequence
B2: FLAG-tagged UNC93B1 (protein, UniProt Q8VCW4 1-598)
chain: MEVEPPLYPVAGAAGPQGDEDRHGVPDGPEAPLDELVGAYPNYNEEEEERRYYRRKRLGVVKNVLAASTGVTLTYGVYLGLLQMQLILHYDETYREVKYGNMGLPDIDSKMLMGINVTPIAALLYTPVLIRFFGTKWMMFLAVGIYALFVSTNYWERYYTLVPSAVALGMAIVPLWASMGNYITRMSQKYYEYSHYKEQDEQGPQQRPPRGSHAPYLLVFQAIFYSFFHLSFACAQLPMIYFLNNYLYDLNHTLINVQSCGTKSQGILNGFNKTVLRTLPRSKNLIVVESVLMAVAFLAMLMVLGLCGAAYRPTEEIDLRSVGWGNIFQLPFKHVRDFRLRHLVPFFIYSGFEVLFACTGFALGYGVCSMGLERLAYLLIAYSLGASASSVLGLLGLWLPRSVPLVAGAGLHLLLTLSLFFWAPAPRVLQHSWIFYFVAALWGVGSALNKTGLSTLLGILYEDKERQDFIFTIYHWWQAVAIFVVYLGSSLPMKAKLAVLLVTLVAAAASYLWMEQKLQQGLVPRQPRIPKPQHKVRGYRYLEEDNSDESDMEGEQGQGDCAEDEAPQAGPLGAEPAGPCRKPCPYEQALGGDGPEEQ

How the values were obtained:
[1] = target: T1, GFP-tagged TLR9 Y870A (mouse); test: co-IP; 293T cells co-transfected with FLAG-UNC93B1 and GFP-tagged WT or Y870A TLR9 (4 ug each), 1% NP40 lysates; GFP-Trap agarose beads, 2 h at 4 C; immunoblot for GFP, FLAG and GRP94
[2] = target: T2, GFP-tagged WT TLR9 (mouse); test: as above
[3] = target: T3, HA-tagged TLR9 Y870A (mouse); test: co-IP; 293T cells co-transfected with HA- and GFP-tagged TLR9 (4 ug each construct), lysed after 24 h in 1% NP40 buffer; anti-HA antibody and rabbit IgG beads, 4 C; immunoblot for HA and GFP
[4] = target: T4, HA-tagged WT TLR9 (mouse); test: as above

Row | Molecule | binding [1] | binding [2] | binding [3] | binding [4]
1 | endogenous GRP94 (from UniProt P14625 22-803) | binds | binds |  | 
2 | B1 |  |  | binds | binds
3 | B2 | binds | binds |  | 
